Data reported in article PMC11535217.

Amino acid sequences for entries named in this document (tags omitted). Residues count along the entry.
UniProt O00206, residues 24-839: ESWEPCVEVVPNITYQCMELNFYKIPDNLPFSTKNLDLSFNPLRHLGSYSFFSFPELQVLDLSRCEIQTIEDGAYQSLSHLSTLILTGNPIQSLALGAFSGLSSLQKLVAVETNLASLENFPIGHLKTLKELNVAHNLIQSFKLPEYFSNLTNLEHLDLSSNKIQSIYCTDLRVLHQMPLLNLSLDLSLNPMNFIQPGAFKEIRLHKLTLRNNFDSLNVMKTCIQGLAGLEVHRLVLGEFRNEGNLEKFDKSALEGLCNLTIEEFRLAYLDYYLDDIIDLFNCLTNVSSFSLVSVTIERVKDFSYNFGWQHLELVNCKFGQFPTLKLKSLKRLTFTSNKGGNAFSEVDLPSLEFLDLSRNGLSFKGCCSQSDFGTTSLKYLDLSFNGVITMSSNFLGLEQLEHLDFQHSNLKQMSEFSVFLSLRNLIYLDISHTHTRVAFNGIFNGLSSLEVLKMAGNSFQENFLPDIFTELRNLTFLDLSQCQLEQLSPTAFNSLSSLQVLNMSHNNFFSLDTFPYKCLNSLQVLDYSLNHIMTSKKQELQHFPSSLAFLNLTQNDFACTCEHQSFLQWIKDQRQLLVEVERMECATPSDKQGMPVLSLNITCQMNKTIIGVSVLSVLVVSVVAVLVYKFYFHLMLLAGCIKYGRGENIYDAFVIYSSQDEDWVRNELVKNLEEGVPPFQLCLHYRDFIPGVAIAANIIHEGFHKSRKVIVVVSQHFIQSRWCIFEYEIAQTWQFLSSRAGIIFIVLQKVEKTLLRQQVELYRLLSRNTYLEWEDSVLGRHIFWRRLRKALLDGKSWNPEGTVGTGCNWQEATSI
UniProt Q92793: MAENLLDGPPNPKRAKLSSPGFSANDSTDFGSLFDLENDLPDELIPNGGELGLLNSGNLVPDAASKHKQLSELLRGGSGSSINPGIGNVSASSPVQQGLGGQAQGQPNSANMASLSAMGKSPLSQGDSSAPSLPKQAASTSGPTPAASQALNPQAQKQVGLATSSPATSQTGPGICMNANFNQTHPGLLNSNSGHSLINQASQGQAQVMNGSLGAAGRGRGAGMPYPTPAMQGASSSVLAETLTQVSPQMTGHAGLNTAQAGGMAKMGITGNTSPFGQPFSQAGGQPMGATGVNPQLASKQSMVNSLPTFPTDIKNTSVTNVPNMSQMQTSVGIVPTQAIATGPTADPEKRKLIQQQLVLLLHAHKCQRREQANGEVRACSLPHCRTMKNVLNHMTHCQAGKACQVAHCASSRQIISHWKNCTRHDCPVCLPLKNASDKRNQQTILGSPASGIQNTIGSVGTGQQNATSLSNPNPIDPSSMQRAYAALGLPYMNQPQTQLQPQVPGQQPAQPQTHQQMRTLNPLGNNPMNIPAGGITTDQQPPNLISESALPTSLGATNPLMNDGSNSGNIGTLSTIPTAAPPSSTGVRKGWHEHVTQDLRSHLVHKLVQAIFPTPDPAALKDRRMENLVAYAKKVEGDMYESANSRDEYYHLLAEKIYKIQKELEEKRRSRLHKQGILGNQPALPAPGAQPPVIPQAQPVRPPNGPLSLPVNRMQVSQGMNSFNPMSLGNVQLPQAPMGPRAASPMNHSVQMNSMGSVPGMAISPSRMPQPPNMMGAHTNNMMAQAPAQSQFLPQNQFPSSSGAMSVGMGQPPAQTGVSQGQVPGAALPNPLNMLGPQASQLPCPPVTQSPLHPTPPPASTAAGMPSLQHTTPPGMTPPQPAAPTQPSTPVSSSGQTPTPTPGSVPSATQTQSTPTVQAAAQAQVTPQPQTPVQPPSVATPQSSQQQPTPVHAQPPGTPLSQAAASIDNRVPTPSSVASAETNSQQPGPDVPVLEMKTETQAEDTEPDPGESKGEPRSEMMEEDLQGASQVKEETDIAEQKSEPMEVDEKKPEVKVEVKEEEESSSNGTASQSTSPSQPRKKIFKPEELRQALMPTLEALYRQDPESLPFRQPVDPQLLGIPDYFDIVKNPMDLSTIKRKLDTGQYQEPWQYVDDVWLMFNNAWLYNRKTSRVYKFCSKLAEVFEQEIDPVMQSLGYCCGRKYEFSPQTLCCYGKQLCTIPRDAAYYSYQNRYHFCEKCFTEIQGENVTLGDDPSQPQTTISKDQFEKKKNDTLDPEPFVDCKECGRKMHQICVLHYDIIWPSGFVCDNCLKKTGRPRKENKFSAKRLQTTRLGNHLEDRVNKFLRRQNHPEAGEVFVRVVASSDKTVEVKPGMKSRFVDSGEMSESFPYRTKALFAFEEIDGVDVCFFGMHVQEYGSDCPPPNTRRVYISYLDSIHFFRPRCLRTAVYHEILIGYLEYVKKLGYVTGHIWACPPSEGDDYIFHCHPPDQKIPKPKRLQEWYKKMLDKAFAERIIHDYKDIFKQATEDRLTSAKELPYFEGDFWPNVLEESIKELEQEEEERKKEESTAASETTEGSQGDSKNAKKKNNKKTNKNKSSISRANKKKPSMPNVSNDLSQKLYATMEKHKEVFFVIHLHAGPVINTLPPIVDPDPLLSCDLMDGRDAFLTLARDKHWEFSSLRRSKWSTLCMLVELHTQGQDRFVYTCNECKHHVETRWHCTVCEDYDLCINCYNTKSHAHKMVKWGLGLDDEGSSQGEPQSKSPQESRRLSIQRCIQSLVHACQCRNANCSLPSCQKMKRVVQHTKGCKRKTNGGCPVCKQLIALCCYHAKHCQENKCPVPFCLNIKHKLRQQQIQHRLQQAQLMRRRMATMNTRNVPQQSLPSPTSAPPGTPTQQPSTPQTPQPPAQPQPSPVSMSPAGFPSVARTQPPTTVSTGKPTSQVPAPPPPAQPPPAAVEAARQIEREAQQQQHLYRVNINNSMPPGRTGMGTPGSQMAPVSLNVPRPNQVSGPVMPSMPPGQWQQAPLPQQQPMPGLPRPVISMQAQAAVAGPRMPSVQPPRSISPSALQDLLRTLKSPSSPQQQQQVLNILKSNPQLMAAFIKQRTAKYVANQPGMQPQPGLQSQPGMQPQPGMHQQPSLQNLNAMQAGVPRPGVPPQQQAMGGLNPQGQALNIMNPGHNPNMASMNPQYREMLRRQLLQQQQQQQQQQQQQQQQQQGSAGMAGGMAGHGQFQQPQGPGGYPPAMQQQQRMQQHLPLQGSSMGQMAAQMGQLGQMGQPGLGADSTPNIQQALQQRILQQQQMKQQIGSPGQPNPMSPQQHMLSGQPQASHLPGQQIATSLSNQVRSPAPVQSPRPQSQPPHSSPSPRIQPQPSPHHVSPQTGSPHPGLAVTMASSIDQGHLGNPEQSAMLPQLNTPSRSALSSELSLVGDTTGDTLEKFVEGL

Target: Toll-like receptor 4 (TLR4), endogenous in THP-1-derived macrophages (human (endogenous in THP-1)) (UniProt O00206)
Assay: affinity purification with mass spectrometry; THP-1 cells induced into macrophages with 100 ng/ml PMA, 100 ng/mL LPS for 30 min; immunoprecipitation with a TLR4 antibody, mass spectrometry of TLR4-associated proteins

## CREB-binding protein (CBP), endogenous in THP-1-derived macrophages (from UniProt Q92793 1-2442) (enzyme)
  binding: binds

These are yes or no findings as the source states them, for the method shown. Binding seen in cells or lysates may run through a third protein. Here binding means that the protein was enriched with, or labelled near, the bait; the list need not be complete.
